This is an account of results in publication PMC8534003, “The Chemokine-Based Peptide, CXCL9(74-103), Inhibits Angiogenesis by Blocking Heparan Sulfate Proteoglycan-Mediated Signaling of Multiple Endothelial Growth Factors” (Cancers, 2021).

Sequences of proteins named here, by UniProt entry; tags and fusion partners are left off. Residues count along the entry.
UniProt P09038, residues 143-288: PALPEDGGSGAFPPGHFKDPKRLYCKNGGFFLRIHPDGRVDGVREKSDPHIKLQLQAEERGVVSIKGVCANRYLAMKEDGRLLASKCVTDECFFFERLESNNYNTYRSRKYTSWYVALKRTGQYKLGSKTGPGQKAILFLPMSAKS

Results are given in words; binding and its absence hold for the method and conditions named. Some results given as binding are weak or reduced against the parent protein; the word gives no strength.

The test addresses human recombinant FGF-2 (human) (UniProt P09038). The experiment in a line: ELISA; ELISA-like direct binding assay: 96-well plates coated with 50 ng/mL growth factor in PBS at 4 °C overnight; blocked with 0.1% casein, 0.05% Tween 20 in PBS; biotinylated CXCL9(74-103) 1-1000 ng/mL, 37 °C, 1 h; detected with streptavidin-HRP; both purified.

B1: biotinylated CXCL9(74-103) (peptide)
peptide: KKKQKNGKKHQKKKVLKVRKSQRSRQKKTT
modifications: biotin at the NH2-terminus
As to B1, the binding entry is “binds”.
